This passage reports log2 fold change results from the supplement of paper PMC12819154, “High-throughput peptide-centric local stability assay extends protein–ligand identification to membrane proteins, tissues and bacteria” (Nature Structural & Molecular Biology, 2025).

Amino acid sequences for entries named in this document (tags omitted). A change or cut given only in a name is not applied to a line headed by its entry.
UniProt Q96ED9: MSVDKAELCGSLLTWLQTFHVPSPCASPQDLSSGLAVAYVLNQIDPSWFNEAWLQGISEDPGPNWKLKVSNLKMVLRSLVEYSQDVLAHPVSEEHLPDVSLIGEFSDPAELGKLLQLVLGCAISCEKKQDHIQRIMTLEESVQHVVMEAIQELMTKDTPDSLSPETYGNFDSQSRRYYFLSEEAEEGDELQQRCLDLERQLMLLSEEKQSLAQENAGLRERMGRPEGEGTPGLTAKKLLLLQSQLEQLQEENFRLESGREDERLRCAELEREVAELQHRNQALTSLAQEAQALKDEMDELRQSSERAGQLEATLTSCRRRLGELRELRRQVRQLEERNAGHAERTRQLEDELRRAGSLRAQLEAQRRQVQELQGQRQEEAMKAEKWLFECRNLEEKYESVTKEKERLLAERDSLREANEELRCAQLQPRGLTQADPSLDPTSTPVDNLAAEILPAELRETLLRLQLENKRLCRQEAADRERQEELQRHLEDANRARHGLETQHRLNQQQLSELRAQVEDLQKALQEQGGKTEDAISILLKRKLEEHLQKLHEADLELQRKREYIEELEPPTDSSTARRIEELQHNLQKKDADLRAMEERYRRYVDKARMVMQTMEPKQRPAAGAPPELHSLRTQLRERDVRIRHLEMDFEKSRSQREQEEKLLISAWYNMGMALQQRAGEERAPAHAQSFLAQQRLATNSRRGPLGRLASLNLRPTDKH
UniProt Q96A57: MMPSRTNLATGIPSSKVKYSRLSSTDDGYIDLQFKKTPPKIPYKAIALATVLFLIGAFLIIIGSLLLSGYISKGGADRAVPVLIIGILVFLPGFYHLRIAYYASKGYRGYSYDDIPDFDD
UniProt Q96FV0: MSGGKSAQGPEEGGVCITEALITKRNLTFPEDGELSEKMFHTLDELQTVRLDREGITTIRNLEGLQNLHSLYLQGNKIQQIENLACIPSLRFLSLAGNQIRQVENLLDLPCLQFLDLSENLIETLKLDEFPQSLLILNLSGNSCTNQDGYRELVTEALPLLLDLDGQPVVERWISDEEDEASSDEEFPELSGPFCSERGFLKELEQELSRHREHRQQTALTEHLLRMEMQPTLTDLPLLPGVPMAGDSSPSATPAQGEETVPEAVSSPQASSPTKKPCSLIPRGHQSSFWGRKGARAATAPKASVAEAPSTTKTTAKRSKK
UniProt Q96EL1: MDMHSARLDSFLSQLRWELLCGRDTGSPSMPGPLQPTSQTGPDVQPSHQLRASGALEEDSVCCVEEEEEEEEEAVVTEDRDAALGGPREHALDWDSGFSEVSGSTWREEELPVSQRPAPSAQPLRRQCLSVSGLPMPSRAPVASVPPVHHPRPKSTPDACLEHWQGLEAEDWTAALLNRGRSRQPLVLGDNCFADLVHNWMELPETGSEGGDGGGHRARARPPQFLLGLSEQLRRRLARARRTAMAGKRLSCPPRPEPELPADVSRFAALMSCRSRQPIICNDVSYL
UniProt Q96G75, whole entry: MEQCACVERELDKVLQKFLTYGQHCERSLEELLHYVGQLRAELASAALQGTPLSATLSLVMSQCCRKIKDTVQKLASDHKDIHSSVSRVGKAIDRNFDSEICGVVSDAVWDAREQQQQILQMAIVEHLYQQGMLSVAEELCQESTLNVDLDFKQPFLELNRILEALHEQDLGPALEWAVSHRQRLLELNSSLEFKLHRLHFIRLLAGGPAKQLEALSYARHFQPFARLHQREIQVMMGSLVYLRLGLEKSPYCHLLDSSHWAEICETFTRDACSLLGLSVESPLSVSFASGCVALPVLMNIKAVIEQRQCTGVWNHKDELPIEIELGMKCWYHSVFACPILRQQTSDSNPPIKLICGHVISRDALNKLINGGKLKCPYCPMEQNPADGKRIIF
UniProt Q92934: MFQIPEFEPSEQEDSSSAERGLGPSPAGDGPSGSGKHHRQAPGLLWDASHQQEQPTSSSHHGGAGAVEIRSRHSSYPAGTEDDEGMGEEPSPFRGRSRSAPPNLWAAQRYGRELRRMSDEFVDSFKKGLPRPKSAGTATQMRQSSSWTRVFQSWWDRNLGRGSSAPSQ
UniProt Q92963, whole entry: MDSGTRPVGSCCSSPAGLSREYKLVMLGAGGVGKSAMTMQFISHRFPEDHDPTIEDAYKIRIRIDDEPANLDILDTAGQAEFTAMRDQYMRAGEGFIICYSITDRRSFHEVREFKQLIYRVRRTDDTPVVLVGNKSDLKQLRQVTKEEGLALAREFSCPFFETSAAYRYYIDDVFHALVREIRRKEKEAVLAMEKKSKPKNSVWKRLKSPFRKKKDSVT
UniProt Q96AY2: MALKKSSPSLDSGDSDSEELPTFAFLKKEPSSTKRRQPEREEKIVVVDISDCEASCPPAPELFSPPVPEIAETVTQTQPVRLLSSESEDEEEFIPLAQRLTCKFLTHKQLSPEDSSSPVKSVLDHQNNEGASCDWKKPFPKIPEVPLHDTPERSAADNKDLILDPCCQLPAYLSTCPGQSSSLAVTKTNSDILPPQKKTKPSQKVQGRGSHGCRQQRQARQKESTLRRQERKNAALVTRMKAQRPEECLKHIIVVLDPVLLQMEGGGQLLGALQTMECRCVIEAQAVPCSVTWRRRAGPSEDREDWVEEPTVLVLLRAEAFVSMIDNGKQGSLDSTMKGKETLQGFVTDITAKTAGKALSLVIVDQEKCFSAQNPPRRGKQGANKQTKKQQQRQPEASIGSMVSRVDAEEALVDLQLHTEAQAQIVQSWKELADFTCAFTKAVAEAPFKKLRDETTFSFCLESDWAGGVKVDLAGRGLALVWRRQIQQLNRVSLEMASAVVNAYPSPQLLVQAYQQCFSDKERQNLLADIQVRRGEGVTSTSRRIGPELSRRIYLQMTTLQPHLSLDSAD
UniProt Q96BR6: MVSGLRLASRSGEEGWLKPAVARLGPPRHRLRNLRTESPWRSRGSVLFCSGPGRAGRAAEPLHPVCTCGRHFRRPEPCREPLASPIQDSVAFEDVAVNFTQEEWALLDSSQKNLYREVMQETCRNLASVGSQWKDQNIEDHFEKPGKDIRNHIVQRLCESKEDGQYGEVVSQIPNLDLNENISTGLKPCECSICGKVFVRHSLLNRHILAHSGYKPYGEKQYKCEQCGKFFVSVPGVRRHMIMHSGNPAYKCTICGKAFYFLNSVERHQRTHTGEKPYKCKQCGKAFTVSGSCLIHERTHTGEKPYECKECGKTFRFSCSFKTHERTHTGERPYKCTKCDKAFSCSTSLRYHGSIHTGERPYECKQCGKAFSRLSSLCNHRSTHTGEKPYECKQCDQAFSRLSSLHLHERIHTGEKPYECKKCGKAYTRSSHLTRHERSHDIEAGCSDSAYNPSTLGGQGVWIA
UniProt Q96D05: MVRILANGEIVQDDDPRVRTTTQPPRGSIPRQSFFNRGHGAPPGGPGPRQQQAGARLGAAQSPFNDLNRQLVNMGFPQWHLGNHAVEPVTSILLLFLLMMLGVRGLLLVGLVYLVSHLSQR
UniProt Q96FZ7: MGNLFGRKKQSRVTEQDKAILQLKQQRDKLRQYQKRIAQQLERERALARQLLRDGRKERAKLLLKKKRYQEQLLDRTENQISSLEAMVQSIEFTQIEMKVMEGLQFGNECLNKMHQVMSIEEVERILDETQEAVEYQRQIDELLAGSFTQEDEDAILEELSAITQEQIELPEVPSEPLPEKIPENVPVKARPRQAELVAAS
UniProt Q92889: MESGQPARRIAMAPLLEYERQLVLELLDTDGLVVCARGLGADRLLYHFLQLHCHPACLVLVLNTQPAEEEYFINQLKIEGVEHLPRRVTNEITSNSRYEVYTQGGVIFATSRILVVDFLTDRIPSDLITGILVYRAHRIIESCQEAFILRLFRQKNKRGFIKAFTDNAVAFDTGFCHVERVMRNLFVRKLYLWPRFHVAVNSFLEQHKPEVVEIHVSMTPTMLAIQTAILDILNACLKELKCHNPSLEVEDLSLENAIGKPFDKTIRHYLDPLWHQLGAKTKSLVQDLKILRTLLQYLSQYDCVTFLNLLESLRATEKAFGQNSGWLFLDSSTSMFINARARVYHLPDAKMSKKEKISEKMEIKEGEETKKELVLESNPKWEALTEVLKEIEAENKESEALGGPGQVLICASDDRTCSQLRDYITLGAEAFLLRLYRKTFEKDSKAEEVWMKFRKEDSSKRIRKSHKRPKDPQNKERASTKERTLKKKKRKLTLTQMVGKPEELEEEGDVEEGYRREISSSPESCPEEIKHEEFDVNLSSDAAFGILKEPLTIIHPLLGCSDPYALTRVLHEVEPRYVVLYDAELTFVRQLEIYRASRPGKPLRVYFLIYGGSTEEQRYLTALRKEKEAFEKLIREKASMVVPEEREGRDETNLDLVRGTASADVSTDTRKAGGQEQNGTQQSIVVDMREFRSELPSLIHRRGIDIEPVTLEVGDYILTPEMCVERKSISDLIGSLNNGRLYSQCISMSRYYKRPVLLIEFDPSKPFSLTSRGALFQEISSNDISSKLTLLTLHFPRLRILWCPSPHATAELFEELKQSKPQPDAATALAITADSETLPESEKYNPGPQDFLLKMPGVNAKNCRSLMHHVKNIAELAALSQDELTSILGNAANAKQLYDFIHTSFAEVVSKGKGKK
UniProt Q969E8: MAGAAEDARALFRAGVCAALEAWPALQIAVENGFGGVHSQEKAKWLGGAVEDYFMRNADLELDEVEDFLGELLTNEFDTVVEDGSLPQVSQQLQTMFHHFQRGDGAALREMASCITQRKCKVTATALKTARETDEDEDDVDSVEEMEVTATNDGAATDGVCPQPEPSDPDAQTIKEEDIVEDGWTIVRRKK
UniProt Q96EW2: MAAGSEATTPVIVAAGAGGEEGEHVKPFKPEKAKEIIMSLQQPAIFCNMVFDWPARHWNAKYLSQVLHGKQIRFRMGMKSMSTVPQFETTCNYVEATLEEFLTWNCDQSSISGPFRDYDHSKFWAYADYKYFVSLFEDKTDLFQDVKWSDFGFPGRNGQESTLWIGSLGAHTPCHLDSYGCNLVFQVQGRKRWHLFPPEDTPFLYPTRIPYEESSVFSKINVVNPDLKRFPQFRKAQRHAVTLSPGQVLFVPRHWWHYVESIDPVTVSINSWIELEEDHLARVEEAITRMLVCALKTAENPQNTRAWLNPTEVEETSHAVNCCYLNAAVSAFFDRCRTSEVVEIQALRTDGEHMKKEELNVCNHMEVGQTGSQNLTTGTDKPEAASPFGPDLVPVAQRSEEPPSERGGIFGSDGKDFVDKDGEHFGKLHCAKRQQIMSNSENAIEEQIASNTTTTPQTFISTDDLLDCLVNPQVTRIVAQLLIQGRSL
UniProt Q96BZ8: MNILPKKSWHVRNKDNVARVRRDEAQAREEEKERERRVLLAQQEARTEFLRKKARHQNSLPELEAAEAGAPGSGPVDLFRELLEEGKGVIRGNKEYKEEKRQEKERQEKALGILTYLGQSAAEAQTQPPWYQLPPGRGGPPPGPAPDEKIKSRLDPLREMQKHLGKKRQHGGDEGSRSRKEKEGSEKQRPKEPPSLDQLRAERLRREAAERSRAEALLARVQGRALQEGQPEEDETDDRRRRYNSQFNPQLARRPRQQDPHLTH
UniProt Q96EA4: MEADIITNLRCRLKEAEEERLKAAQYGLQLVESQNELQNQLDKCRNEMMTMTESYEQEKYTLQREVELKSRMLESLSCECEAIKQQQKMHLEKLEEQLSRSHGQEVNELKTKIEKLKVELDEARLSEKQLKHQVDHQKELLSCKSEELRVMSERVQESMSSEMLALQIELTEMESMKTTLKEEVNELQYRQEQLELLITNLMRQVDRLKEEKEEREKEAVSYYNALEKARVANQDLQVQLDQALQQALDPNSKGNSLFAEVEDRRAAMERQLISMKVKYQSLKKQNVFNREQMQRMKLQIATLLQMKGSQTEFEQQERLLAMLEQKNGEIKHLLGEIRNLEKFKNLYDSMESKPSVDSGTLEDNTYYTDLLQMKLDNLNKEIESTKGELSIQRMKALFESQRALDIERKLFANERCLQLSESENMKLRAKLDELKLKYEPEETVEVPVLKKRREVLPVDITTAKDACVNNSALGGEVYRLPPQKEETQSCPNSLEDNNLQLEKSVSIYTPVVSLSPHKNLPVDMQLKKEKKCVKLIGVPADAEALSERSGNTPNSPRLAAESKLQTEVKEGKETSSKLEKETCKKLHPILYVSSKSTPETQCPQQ
UniProt Q96CP2: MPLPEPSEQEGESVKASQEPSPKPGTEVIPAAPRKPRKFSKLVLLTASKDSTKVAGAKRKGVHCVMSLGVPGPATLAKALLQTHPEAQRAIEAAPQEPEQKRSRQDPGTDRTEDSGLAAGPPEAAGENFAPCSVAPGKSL
UniProt Q96BK5: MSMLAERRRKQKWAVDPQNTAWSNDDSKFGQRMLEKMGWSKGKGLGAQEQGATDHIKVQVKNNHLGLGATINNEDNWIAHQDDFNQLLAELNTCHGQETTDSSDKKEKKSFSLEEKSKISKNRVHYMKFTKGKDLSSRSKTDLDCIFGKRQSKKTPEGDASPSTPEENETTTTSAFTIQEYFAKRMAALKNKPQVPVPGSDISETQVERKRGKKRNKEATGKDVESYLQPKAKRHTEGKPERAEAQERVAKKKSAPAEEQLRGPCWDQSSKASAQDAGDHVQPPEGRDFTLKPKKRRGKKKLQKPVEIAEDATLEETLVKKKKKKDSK

Compound in the assay: CN[C@@H]1C[C@H]2O[C@@](C)([C@@H]1OC)n1c3ccccc3c3c4c(c5c6ccccc6n2c5c31)C(=O)NC4 [staurosporine]
The assay can be described thus: log2 fold change of tryptic peptide abundance, ligand vs vehicle (limited proteolysis) (log2 ratio); higher = more trypsin-susceptible (destabilized). Conditions: ligand concentration: 20 uM; sample: K562 cleared lysate; digestion: 4 min, 22 C (HT-PELSA RT4min, Orbitrap Astral).

The other results are listed elsewhere or left out. Most entries show no effect beyond the scatter of the controls.

Consider “HOOK2 (peptide sequence: EVAELQHR, peptide start residue: 272) (UniProt Q96ED9)”, for which the log2 fold change is -0.44.

For “UniProt Q96A57 (peptide sequence: TNLATGIPSSK, peptide start residue: 6)”, the log2 fold change was -0.0374.

As to “UniProt Q96FV0 (peptide sequence: MFHTLDELQTVR, peptide start residue: 39)”, the log2 fold change was 0.209.

Consider “R3HDM4 (peptide sequence: RREDPAYTPR, peptide start residue: 157) (UniProt Q96D70)”, for which the log2 fold change worked out at 0.588.

On to “ALKBH8 (peptide sequence: ETPPSFPESDKEASR, peptide start residue: 355) (UniProt Q96BT7)”, for which the log2 fold change was 0.489.

Consider “SYAP1 (peptide sequence: FVEEQHTKK, peptide start residue: 111) (UniProt Q96A49)”, for which the log2 fold change was found to be 0.497.

For “UniProt Q96EL1 (peptide sequence: LSCPPRPEPELPADVSR, peptide start residue: 250)”, the log2 fold change is 0.182.

Consider “RAD51AP1 (peptide sequence: KEEIPVQEK, peptide start residue: 57) (UniProt Q96B01)”, for which the log2 fold change was 0.3.

For the target “RMND5B (peptide sequence: CWYHSVFACPILR, peptide start residue: 330) (UniProt Q96G75)”, the log2 fold change was -0.0895.

Take “BAD (peptide sequence: SAGTATQMR, peptide start residue: 134) (UniProt Q92934)”: the log2 fold change amounted to 0.382.

Regarding “UniProt Q969J3 (peptide sequence: LQEIPTFQPLLK, peptide start residue: 56)”, the log2 fold change is -0.544.

Consider “RIT1 (peptide sequence: QVTKEEGLALAR, peptide start residue: 143) (UniProt Q92963)”, for which the log2 fold change stood at 0.103.

As for “KIFAP3 (peptide sequence: MIPCEHEDLLNITLR, peptide start residue: 352) (UniProt Q92845)”, the log2 fold change was -0.0912.

As to “EME1 (peptide sequence: QLSPEDSSSPVK, peptide start residue: 109) (UniProt Q96AY2)”, the log2 fold change was 0.252.

With “RFK (peptide sequence: IKEDNFFQVSK, peptide start residue: 138) (UniProt Q969G6)”, the log2 fold change turned out to be 0.696.

On to “UniProt Q969V6 (peptide sequence: GAPPMDSSYAK, peptide start residue: 251)”, for which the log2 fold change was -0.283.

With “FGF13 (peptide sequence: SMSHNEST, peptide start residue: 238) (UniProt Q92913)”, the log2 fold change was found to be 0.137.

Regarding “UniProt Q96BD8 (peptide sequence: EFTTLKADKK, peptide start residue: 218)”, the log2 fold change stood at 1.1.

In the case of “MRPL24 (peptide sequence: GTMIPSEAPLLHR, peptide start residue: 106) (UniProt Q96A35)”, the log2 fold change came to 0.191.

As for “ZNF669 (peptide sequence: STHTGEKPYECK, peptide start residue: 382) (UniProt Q96BR6)”, the log2 fold change is -0.965.

Regarding “UniProt Q96D05 (peptide sequence: GHGAPPGGPGPR, peptide start residue: 38)”, the log2 fold change turned out to be 0.33.

Turning to “OSTF1 (peptide sequence: LAFDMATNAACASLLKK, peptide start residue: 175) (UniProt Q92882)”, the log2 fold change stood at 0.614.

Consider “CCDC97 (peptide sequence: VAILAQLYHEKPLVFLER, peptide start residue: 93) (UniProt Q96F63)”, for which the log2 fold change was -0.174.

“FAHD2A (peptide sequence: RALAAQLPVLPR, peptide start residue: 82) (UniProt Q96GK7)”: the log2 fold change was -0.255.

With “CHMP6 (peptide sequence: MHQVMSIEEVER, peptide start residue: 114) (UniProt Q96FZ7)”, the log2 fold change is -0.476.

Regarding “GPKOW (peptide sequence: ELQSVKPQEAPK, peptide start residue: 56) (UniProt Q92917)”, the log2 fold change is -0.0933.

Consider “ERCC4 (peptide sequence: LTLLTLHFPR, peptide start residue: 788) (UniProt Q92889)”, for which the log2 fold change was -0.36.

Consider “OPTN (peptide sequence: SSEDPTDDSR, peptide start residue: 121) (UniProt Q96CV9)”, for which the log2 fold change was determined as 0.758.

As for “TSR2 (peptide sequence: AKWLGGAVEDYFMR, peptide start residue: 43) (UniProt Q969E8)”, the log2 fold change came out at 0.109.

As to “KTI12 (peptide sequence: YELYCLAR, peptide start residue: 89) (UniProt Q96EK9)”, the log2 fold change is 0.356.

For the target “UniProt Q96BN8 (peptide sequence: ELLIHER, peptide start residue: 67)”, the log2 fold change is -0.213.

On to “HSPBAP1 (peptide sequence: INVVNPDLK, peptide start residue: 220) (UniProt Q96EW2)”, for which the log2 fold change turned out to be 0.187.

Turning to “UniProt Q96EY5 (peptide sequence: SLADIEEEYNYGFVVEK, peptide start residue: 246)”, the log2 fold change is -0.461.

In the case of “LENG1 (peptide sequence: GGPPPGPAPDEK, peptide start residue: 138) (UniProt Q96BZ8)”, the log2 fold change was -0.119.

Consider “UniProt Q96EA4 (peptide sequence: VKYQSLKK, peptide start residue: 277)”, for which the log2 fold change worked out at 0.657.

Turning to “UniProt Q96EF9 (peptide sequence: SFFPHSGK, peptide start residue: 203)”, the log2 fold change came out at 0.163.

As for “RNF31 (peptide sequence: LLAQECAVCGWALPHNR, peptide start residue: 694) (UniProt Q96EP0)”, the log2 fold change was -0.264.

In the case of “UBE2E3 (peptide sequence: KPSATQQKK, peptide start residue: 39) (UniProt Q969T4)”, the log2 fold change turned out to be 0.319.

Regarding “MED8 (peptide sequence: QTEGRVPVFSHEVVPDHLR, peptide start residue: 92) (UniProt Q96G25)”, the log2 fold change is -0.626.

In the case of “FLYWCH2 (peptide sequence: PGTEVIPAAPR, peptide start residue: 24) (UniProt Q96CP2)”, the log2 fold change is 0.579.

Regarding “KIAA1143 (peptide sequence: PVKHPSDEK, peptide start residue: 100) (UniProt Q96AT1)”, the log2 fold change was -0.569.

On to “UniProt Q96CX3 (peptide sequence: SSLTQHQR, peptide start residue: 35)”, for which the log2 fold change is -0.202.

As for “UniProt Q92888 (peptide sequence: EILHHVNQAVR, peptide start residue: 597)”, the log2 fold change was determined as 0.175.

“GLMN (peptide sequence: MIFNHGR, peptide start residue: 258) (UniProt Q92990)”: the log2 fold change is 0.268.

For the target “PINX1 (peptide sequence: KSFSLEEK, peptide start residue: 109) (UniProt Q96BK5)”, the log2 fold change is -0.36.
